# Experimental data published in patent US20040105907A1, “Anti-inflammatory effects of the partially purified extract of radix stephaniae tetrandrae” (priority 2002, published 2004).
# At least one compound was matched to its structure with a doubt left.
# How the values were obtained:
# [1] = system: calcium channel; details: Kim et al. 1997; cited from earlier work
# [2] = system: human neutrophils; assay: Neutrophil firm adhesion to fibrinogen-coated plates (BCECF fluorescence); format: cell-based
# [3] = system: Mac-1 (CD11b/CD18); assay: Mac-1 upregulation on neutrophil surface by flow cytometry; format: cell-based, human; details: 5-10 μg/ml; fMLP 1 μM or LTB4 0.1 μM; P<0.05, n=3-5
# [4] = system: human neutrophils; assay: Flow cytometric analysis of intracellular ROS (O2- and H2O2) production; format: cell-based; details: 5-10 μg/ml; fMLP 1 μM, 30 min; P<0.05, n=5-8
# [5] = system: human neutrophils; assay: Intracellular pH (pHi) alkalization by flow cytometry (BCECF); format: cell-based; details: 10 μg/ml pretreatment; fMLP 1 μM; ANOVA P<0.05, n=5
# [6] = system: human neutrophils; assay: fMLP- or LTB4-induced intracellular calcium concentration ([Ca2+]i), fura-2; format: cell-based; details: 5-10 μg/ml; fMLP 1 μM or LTB4 0.1 μM; P<0.05, n=4-8
# [7] = system: human neutrophils; assay: AlF4−-induced (direct G protein activation) [Ca2+]i increment; format: cell-based; details: 5-10 μg/ml; AlF4− (10 mM NaF plus 10 μM AlCl3); P<0.05, n=5
# [8] = system: human neutrophils; assay: AlF4−-induced neutrophil firm adhesion; format: cell-based; details: 5-10 μg/ml; AlF4− (10 mM NaF plus 10 μM AlCl3); P<0.05, n=5
Compound,potency as vasodilator and calcium channel blocker compared with Tet [1],"effect on spontaneous neutrophil adhesion or transmigration ([2]; drug alone, no stimulus, ANOVA P>0.05)","attenuation of neutrophil firm adhesion or transmigration ([2]; pretreated with 0.1 μg/ml of Tet or Fan, single or combined, data not shown)","inhibition of fMLP- or LTB4-induced neutrophil firm adhesion ([2]; pretreatment 1-10 μg/ml, 10 min, fMLP 1 μM or LTB4 0.1 μM, 15 min)",inhibition of fMLP- or LTB4-induced Mac-1 upregulation [3],fluorescence intensity of DCF (H2O2) induced by fMLP [4],fluorescence intensity of EB (O2−) induced by fMLP [4],limitation of fMLP-induced cytosolic alkalization (pHi) [5],inhibition of fMLP- or LTB4-triggered rapid increase in [Ca2+]i [6],AlF4−-induced [Ca2+]i increment [7],AlF4−-induced neutrophil firm adhesion [8]
"COc1ccc2cc1Oc1ccc(cc1)C[C@H]1c3cc(c(OC)cc3CCN1C)Oc1c(O)c(OC)cc3c1[C@H](C2)N(C)CC3 [Fan, fangchinoline]",less potent than Tet,,,,,,,,,,
"COc1ccc2cc1Oc1ccc(cc1)C[C@H]1c3cc(c(OC)cc3CCN1C)Oc1c(OC)c(OC)cc3c1[C@H](C2)N(C)CC3 [Tet, tetrandrine]",,did not influence,neither single drug treatment nor combination of Tet and Fan could attenuate,does-dependently inhibited,significantly inhibited,concentration-dependently decreased,concentration-dependently decreased,significantly limited,concentration-dependently inhibited,concentration-dependently decreased,concentration-dependently decreased
